{
  "source": "PubChem BioAssay AID540276",
  "about": "(National Center for Advancing Translational Sciences (NCATS), 2011)",
  "note": "Where “and” joins values, the source holds several entries; their conditions need not be identical. Equal entries are not always repeated. Among all 300,000 compounds or so, about 5,400 (1.8%) were called active. This list was built around the results that the source calls inconclusive (neither active nor inactive); the mix of calls is not that of the screen. Calls follow the shape of the full dose curve; tested in HEK293 cells. Where the call is inconclusive, the potency comes from a doubtful curve fit. Potency is read from the fitted curve at half-maximal effect.",
  "data": [
    {"assay": "qHTS for inhibitors of binding or entry into cells for Marburg Virus", "details": "Marburg virus pseudotyped entry inhibition, cell reporter; series mostly up to 37.8 µM", "values": [
      {"molecule": "O=C(O)c1ccccc1C(=O)Nc1ccc(Oc2cccc3ccccc23)cc1", "Potency": "inconclusive: 0.891 µM [inhibitor, full curve, poor fit]"},
      {"molecule": "CCc1cccc(C)c1NC(=O)CN(C)Cc1ccc(Br)cc1", "Potency": "inconclusive: 11.2 µM [inhibitor, partial curve]"},
      {"molecule": "CC(C)NC(=O)c1ccc(-c2cccc(C(F)(F)F)c2)o1", "Potency": "inconclusive: 0.0891 µM [activator, full curve, poor fit]"},
      {"molecule": "C=CCNC(=O)C1CC(=O)N(c2ccc(OCc3ccccc3Cl)cc2)C1", "note": "(centres undefined)", "Potency": "inconclusive: 3.98 µM [activator, full curve, poor fit]"},
      {"molecule": "Cc1ccc(C(C)(C)C)c(OCCN2CCCC2)c1", "Potency": "inconclusive: 10 µM [inhibitor, partial curve, poor fit]"},
      {"molecule": "COc1ccccc1Oc1nc(-c2cccnc2)nc2ccccc12", "Potency": "inconclusive: 12.6 µM [inhibitor, partial curve]"},
      {"molecule": "COc1cc(OC)cc(C(=O)N[C@H](C(=O)Nc2cccc(S(=O)(=O)N3CCCC3)c2)C(C)C)c1", "Potency": "inconclusive: 8.91 µM [inhibitor, partial curve]"},
      {"molecule": "Cn1c2ccccc2c2nnc(SCC(=O)NC3CC3)nc21", "Potency": "inactive"},
      {"molecule": "O=C(c1ccc(Cn2cc([N+](=O)[O-])cn2)o1)N1N=C(C(F)F)CC1(O)C(F)F", "note": "(centres undefined)", "Potency": "inactive"},
      {"molecule": "CCC(C)NC(=O)C1CCN(S(=O)(=O)c2ccc(Br)s2)CC1", "note": "(centres undefined)", "Potency": "inactive"},
      {"molecule": "CNC(=O)c1cc(Nc2nnc(-c3ccc(O)cc3)c3ccccc23)ccc1OC", "Potency": "inconclusive: 22.4 µM [inhibitor, single point] and inconclusive: 8.91 µM [inhibitor, partial curve, poor fit]"},
      {"molecule": "COc1ccccc1NC(=O)Nc1nc(CC(=O)NCc2ccc(F)cc2)cs1", "Potency": "inconclusive: 12.6 µM [inhibitor, partial curve, poor fit]"},
      {"molecule": "CCc1cccc(NC(=O)c2cc(S(=O)(=O)N(C)C)ccc2N2CCCC2)c1", "Potency": "inconclusive: 7.08 µM [inhibitor, full curve, poor fit]"},
      {"molecule": "O=C1CC(NS(=O)(=O)c2ccc3ccccc3c2)CN1c1ccccc1", "note": "(centres undefined)", "Potency": "inconclusive: 10 µM [inhibitor, partial curve, poor fit]"},
      {"molecule": "CCN1C(=NCCOC)N[C@@H](c2ccccc2)[C@H](C(=O)OC)[C@H]1C", "Potency": "inactive"},
      {"molecule": "CCOC(=O)C(Cc1ccccc1)C(=O)Nc1nccs1", "note": "(centres undefined)", "Potency": "inconclusive: 1.41 µM [activator, partial curve, poor fit]"},
      {"molecule": "CCOc1ccc2[nH]c(=O)c(CN(CCN3CCCC3)C(=S)Nc3ccccc3OC)cc2c1", "Potency": "inconclusive: 35.5 µM [inhibitor, single point]"},
      {"molecule": "COc1ccc2cc(C(=O)NCc3ccco3)c(=O)oc2c1", "Potency": "inactive"},
      {"molecule": "CCC1CCCCN1CCN1C(=O)C2C(C(=O)Nc3cccc(OC)c3)C3C=CC2(O3)C1C(=O)NC1CCCCC1", "note": "(centres undefined)", "Potency": "inconclusive: 11.2 µM [inhibitor, single point]"},
      {"molecule": "COc1ccccc1CCC(=O)Nc1nccs1", "Potency": "inactive"},
      {"molecule": "Cc1cc(C(=O)CSc2nc3ccc(Cl)cc3[nH]2)c(C)n1CC1CCCO1", "note": "(centres undefined)", "Potency": "active: 12.6 µM"},
      {"molecule": "O=C(CNC(=O)c1ccccc1)OC(C(=O)Nc1cc(C(F)(F)F)ccc1Cl)c1ccccc1", "note": "(centres undefined)", "Potency": "inactive"},
      {"molecule": "Cc1cccc(Sc2c([N+](=O)[O-])ncn2C)c1", "Potency": "inconclusive: 4.61 µM [inhibitor, partial curve, poor fit]"},
      {"molecule": "Cc1nc(N2CCOCC2)sc1C(=O)NN", "Potency": "inconclusive: 5.01 µM [inhibitor, full curve, poor fit]"},
      {"molecule": "CCC(C)(C)n1nnnc1C(c1cc2ccc(OC)cc2[nH]c1=O)N1CCCCC1", "note": "(centres undefined)", "Potency": "inconclusive: 2.91 µM [inhibitor, partial curve, poor fit]"},
      {"molecule": "O=C(C1CCCN(Cc2ccncc2)C1)N1CCc2ccccc2C1", "note": "(centres undefined)", "Potency": "inconclusive: 0.398 µM [activator, partial curve, poor fit]"},
      {"molecule": "O=C(c1ccc(-c2cccc(C(F)(F)F)c2)o1)N1CCCC(C(F)(F)F)C1", "note": "(centres undefined)", "Potency": "inconclusive: 2.51 µM [inhibitor, full curve]"},
      {"molecule": "Cc1cccc(Oc2nc3c(c(=O)n(C)c(=O)n3C)n2C)c1", "Potency": "inconclusive: 6.31 µM [inhibitor, single point]"},
      {"molecule": "O=C(CCCOc1ccc(Cl)cc1Cl)Nc1nnc(C2CC2)s1", "Potency": "inactive"},
      {"molecule": "Cc1ccc(SCC(=O)Nc2cccnc2)cc1", "Potency": "inactive"},
      {"molecule": "Cc1cccc(NC(=O)COC(=O)CC2CCCC2)c1C", "Potency": "inactive"},
      {"molecule": "CCOC(=O)c1sc(NC(=O)c2cccc(S(=O)(=O)N(CC)CC)c2)cc1C", "Potency": "inconclusive: 8.2 µM [inhibitor, partial curve, poor fit]"},
      {"molecule": "CCCCCn1c(=O)[nH]c2cc(C(=O)N3CCN(c4cccc(C)c4)C(C)C3)ccc2c1=O", "note": "(centres undefined)", "Potency": "inconclusive: 12.6 µM [inhibitor, single point]"},
      {"molecule": "N#Cc1cccc(NC(=O)CC2CCCC2)c1", "Potency": "inconclusive: 3.16 µM [activator, single point]"},
      {"molecule": "CC(=O)c1ccc(OCC(=O)Nc2cccc(S(=O)(=O)N3CCCC3)c2)cc1", "Potency": "inconclusive: 31.6 µM [inhibitor, single point]"},
      {"molecule": "CS(=O)(=O)N(CC(=O)NCCc1ccccc1)c1cc(C(F)(F)F)ccc1Cl", "Potency": "inactive"},
      {"molecule": "CCOc1cc(/C=C2/C(=N)N3OC(C)=CC3=NC2=O)ccc1OCCOc1ccccc1", "Potency": "inconclusive: 9.2 µM [inhibitor, partial curve, poor fit]"},
      {"molecule": "CCn1c(-c2ccccc2)csc1=Nc1ccc(S(=O)(=O)O)cc1", "Potency": "inconclusive: 22.4 µM [inhibitor, partial curve, poor fit]"},
      {"molecule": "CCOC(=O)Cc1csc(SC(C)C(=O)NC2CCCCC2C)n1", "note": "(centres undefined)", "Potency": "inconclusive: 2.51 µM [activator, partial curve, poor fit]"},
      {"molecule": "Cc1ccc2cc(CN(Cc3nnnn3C3CCCC3)C3CCCCC3)c(=O)[nH]c2c1C", "Potency": "inactive"},
      {"molecule": "CCc1nc(N2CCN(C(=O)c3ccco3)CC2)c2oc3ccccc3c2n1", "Potency": "inconclusive: 11.6 µM [inhibitor, partial curve, poor fit]"},
      {"molecule": "Cn1c(=O)c2c(ncn2CC(=O)N/N=C/c2cn[nH]c2-c2ccc(F)cc2)n(C)c1=O", "Potency": "inconclusive: 7.94 µM [inhibitor, partial curve, poor fit]"},
      {"molecule": "Cc1cccc(NC(=S)NCCc2ccccc2)c1C", "Potency": "inconclusive: 10 µM [inhibitor, partial curve, poor fit]"},
      {"molecule": "CCN(CC)c1ccc(N=Cc2ccc([N+](=O)[O-])o2)cc1", "Potency": "inconclusive: 35.5 µM [inhibitor, partial curve, poor fit]"},
      {"molecule": "CCOc1ccc(OCc2cccc(C(=O)N3CCCC3)c2)cc1", "Potency": "inconclusive: 18.3 µM [inhibitor, single point]"},
      {"molecule": "COc1ccc(-c2cc(C)nc3c(-c4ccc(OC)c(OC)c4)c(C)nn23)cc1", "Potency": "inconclusive: 8.91 µM [inhibitor, partial curve, poor fit]"},
      {"molecule": "S=C(c1ccc(-c2ccccc2)o1)N1CCCCC1", "Potency": "inconclusive: 35.5 µM [inhibitor, single point]"},
      {"molecule": "COc1cc(NC(=O)COC(=O)[C@@H]2CCCN2S(=O)(=O)c2ccc(Cl)cc2)cc(OC)c1OC", "Potency": "inconclusive: 6.31 µM [inhibitor, single point]"},
      {"molecule": "COc1ccc(NC(=O)c2ccc(NS(=O)(=O)c3cccc4cccnc34)cc2)cc1", "Potency": "inconclusive: 35.5 µM [inhibitor, single point]"},
      {"molecule": "CCN(CC)C(=O)Oc1ccc2c(=O)c(-c3ccc(OC)cc3)coc2c1", "Potency": "inactive"},
      {"molecule": "S=C1Cc2ccccc2C(c2ccc(Cl)cc2)N1", "note": "(centres undefined)", "Potency": "inconclusive: 11.2 µM [inhibitor, partial curve, poor fit]"},
      {"molecule": "CC(C)NP(=O)(NC(C)C)OP(=O)(NC(C)C)NC(C)C", "Potency": "inconclusive: 2.31 µM [activator, single point]"},
      {"molecule": "Cc1cccc(C)c1N(CC(=O)N1CCCC1)S(C)(=O)=O", "Potency": "inconclusive: 2.51 µM [inhibitor, partial curve, poor fit]"},
      {"molecule": "O=S(=O)(c1cc(F)ccc1F)N1CCC2(CC1)OCCN2S(=O)(=O)c1cccs1", "Potency": "inactive"},
      {"molecule": "Cc1cc(C)cc(OCCCOc2cccc3cccnc23)c1", "Potency": "inconclusive: 3.98 µM [inhibitor, full curve, poor fit]"},
      {"molecule": "CCOC(=O)c1cc2c(C)n(-c3ccc(OCC)cc3)c(C)c2ccc1=O", "Potency": "inconclusive: 12.6 µM [inhibitor, single point]"},
      {"molecule": "COc1cc(/C=N/n2nnnc2N)ccc1OC(C)C", "Potency": "inconclusive: 10 µM [activator, partial curve, poor fit]"},
      {"molecule": "COC(=O)C1=NN(C(C)=O)C2(CC(=O)N(c3cc(C)cc(C)c3)C2=O)C1", "note": "(centres undefined)", "Potency": "inconclusive: 0.282 µM [inhibitor, full curve, poor fit]"},
      {"molecule": "O=C1CC(C(=O)N2CCN(S(=O)(=O)c3cccc(F)c3)CC2)CN1Cc1ccccc1Cl", "note": "(centres undefined)", "Potency": "inconclusive: 35.5 µM [activator, single point]"},
      {"molecule": "O=C(O)C1CCN(C(=O)c2ccc(Cl)cc2)CC1", "Potency": "inconclusive: 3.55 µM [activator, single point]"},
      {"molecule": "Cc1onc(-c2c(Cl)cccc2Cl)c1C(=O)N=S(C)(=O)c1ccccc1", "note": "(centres undefined)", "Potency": "inconclusive: 2.51 µM [inhibitor, full curve]"},
      {"molecule": "CCOc1ccc(C2CC(=O)n3nc(C45CC6CC(CC(C6)C4)C5)nc3S2)cc1OC", "note": "(centres undefined)", "Potency": "inactive"},
      {"molecule": "COc1ccc(CNC(=O)c2noc(C(C)C)c2[N+](=O)[O-])cc1", "Potency": "inconclusive: 31.6 µM [activator, single point]"},
      {"molecule": "Cc1c(N/C=C/C(=O)C(F)(F)F)c(=O)n(-c2ccccc2)n1C", "Potency": "inactive"}
    ]}
  ]
}
